Results: PubChem BioAssay AID2685 (National Center for Advancing Translational Sciences (NCATS), 2010)
This is one part of the list. Further columns of the screen follow, without active or inactive calls. The list favours compounds with an active or inconclusive main result. Words in brackets tell the shape of the fitted curve; partial curves, single points and poor fits give uncertain potencies.

Test: qHTS Assay for Lipid Storage Modulators in Drosophila S3 Cells;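 for cell number change: cells counted by Cell Tracker Red CMTPX staining in the red channel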
Details: BODIPY lipid droplet fluorescence, 18-24 h; for cell number change: measured here: cell count max response, cells fed with added oleic acid
Procedure, shortened: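 Drosophila S3 cells loaded with oleic acid (400 uM, as added) and compounds at several concentrations; lipid droplets imaged by 488-nm laser-scanning cytometry, 500–530 nm intensity and object ratio to cell channel. Percent activity normalized to 20 uM Triacsin C.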

[1] = measured here: lipid fluorescence (Fed channel) AC50, cells fed with added oleic acid
[2] = measured here: cell number channel AC50, cells fed with added oleic acid

| SMILES | cell number change [%] | AC50 [1] | AC50 [2] |
| --- | --- | --- | --- |
| O=C(CSc1nnc(CNc2ccc(F)cc2)n1Cc1ccccc1)NCc1ccco1 | -9.11 | 0.0058 µM [falling, full curve, poor fit] |  |
| N#CCC(=O)Nc1ccc(C(=O)NCc2cccc(Cl)c2)cc1 | 12.7 | 7.31 µM [rising, partial curve] |  |
| COc1ccc(NC(=O)C23CC4CC(C2)CC(n2cnc(Br)n2)(C4)C3)c(OC)c1 | 37.4 |  | 6.51 µM [falling, single point] |
| COc1ccc(S(=O)(=O)NC(C)CCc2ccccc2)cc1 (stereo not given) | -1.27 |  | 7.31 µM [falling, partial curve, poor fit] |
| COc1ccc(/C=N/NC(=O)CNC(=O)c2ccc(S(=O)(=O)N3CCOCC3)cc2)cc1OC | 48.7 |  | 29.1 µM [rising, single point] |
| CCOc1ccc(C(=O)NC(C(=O)NCc2ccccn2)C(C)C)cc1 (stereo not given) | 7.18 |  |  |
| C=CCN(c1ccccc1)S(=O)(=O)c1ccc2c(c1)NC(=O)C(C)C(=O)N2 (stereo not given) | -21 | 0.092 µM [falling, full curve] |  |
| CCn1c(SCC(=O)N/N=C(/C)c2ccncc2)nc2ccccc21 | 7.49 |  |  |
| COc1cc(C2CC(=O)Nc3cc(C)c(C)cc32)cc(OC)c1OC (stereo not given) | -1.14 | 13 µM [falling, partial curve] |  |
| O=C(Cn1cnc2ccccc2c1=O)NCCCN1CCCC1=O | 29.6 | 0.82 µM [rising, full curve, poor fit] | 0.00517 µM [rising, full curve, poor fit] |
| COc1ccc(OC)c(NC(=S)Nc2ccccc2)c1 | -23.6 |  |  |
| COc1ccccc1NS(=O)(=O)c1cccs1 | -10.8 | 23.1 µM [falling, single point] |  |
| CCS(=O)(=O)N1CCN(C(=O)c2cccnc2)CC1 | 3.69 |  |  |
| Cc1ccccc1N1OC2C(=O)N(c3ccc(F)cc3)C(=O)C2C1c1ccccn1 (stereo not given) | -80.5 | 23.1 µM [falling, single point] | 18.4 µM [falling, partial curve] |
| O=C(N/N=C/c1ccncc1)c1ccccc1[N+](=O)[O-] | 31.1 | 4.61 µM [rising, single point] | 23.1 µM [rising, single point] |
| Cc1ccc(N=C2NC(=O)CS2)cc1C | 16.1 |  |  |
| CCCCN(C(=S)NC(=O)c1cc(OC)c(OC)c(OC)c1)c1c(N)n(Cc2ccccc2)c(=O)[nH]c1=O | 21.8 | 11.6 µM [rising, partial curve, poor fit] |  |
| Cc1nn(C)c(C(=O)Nc2ccc(S(=O)(=O)NC34CC5CC(CC(C5)C3)C4)cc2)c1Br | -36.6 |  | 20.6 µM [falling, partial curve, poor fit] |
| CCOC(=O)C1CCCN(S(=O)(=O)c2cc3c4c(c2)CCC(=O)N4CCC3)C1 (stereo not given) | 35 |  | 11.6 µM [rising, partial curve, poor fit] |
| COC(=O)Nc1sc2c(c1C(=O)NCc1ccco1)CCC2 |  | 0.58 µM [rising, single point] |  |
| O=C(c1cc(-c2ccccc2)n[nH]1)N1CCN(S(=O)(=O)c2ccccc2)CC1 | 17 | 18.4 µM [falling, single point] |  |

An excerpt of these results, as tab-separated lines.
SMILES	cell number change [%]	AC50 [1]	AC50 [2]
COc1ccc(S(=O)(=O)NC(C)CCc2ccccc2)cc1 (stereo not given)	-1.27		7.31 µM [falling, partial curve, poor fit]
COc1ccc(/C=N/NC(=O)CNC(=O)c2ccc(S(=O)(=O)N3CCOCC3)cc2)cc1OC	48.7		29.1 µM [rising, single point]
CCOc1ccc(C(=O)NC(C(=O)NCc2ccccn2)C(C)C)cc1 (stereo not given)	7.18		

(more compounds)

| SMILES | cell number change [%] | AC50 [1] | AC50 [2] |
| --- | --- | --- | --- |
| C/C(N)=C(/C#N)C(=O)COC(=O)c1cc(S(=O)(=O)N2CCCCC2)ccc1C |  | 0.731 µM [rising, single point] |  |
| CCOc1ccc(C2C(C(=O)OC)=C(C)N=C3SCCC(=O)N32)cc1OCC (stereo not given) | 12 | 2.06 µM [rising, partial curve] | 6.51 µM [rising, partial curve, poor fit] |
| CCOC(=O)c1c(C)[nH]c(C(=O)N2CCC(C(=O)OCC)CC2)c1C | -12.3 |  |  |
| Cc1cc(C)c(C)c(S(=O)(=O)N2CCN(C(=O)c3ccc4c(=O)n5c(nc4c3)CCC5)CC2)c1C | 49.4 |  | 2.06 µM [rising, full curve] |
| COc1cc(-c2nnc(Cn3cc(C(F)(F)F)ccc3=O)o2)cc(OC)c1OC |  | 6.51 µM [falling, single point] |  |
| Cc1c(C(=O)OCC(=O)Nc2c(C)n(C)n(-c3ccccc3)c2=O)cccc1[N+](=O)[O-] | 94.7 | 0.58 µM [falling, single point] | 20.6 µM [rising, single point] |
| CCNc1ccc(C(=O)OCC(=O)NCc2ccccc2Cl)cc1[N+](=O)[O-] | -27.8 | 29.1 µM [falling, single point] |  |
| COc1ccc2cc(C#N)c(SCC(=O)N3CCCC3)nc2c1 |  |  | 4.61 µM [rising, single point] |
| Cc1ccc(NC(=O)CCC(=O)NNC(=O)COc2ccccc2)c(C)c1 | 53.8 | 1.16 µM [falling, single point] | 18.4 µM [rising, single point] |
| Cc1nnsc1C(=O)Nc1ccccc1Cl | -13 |  |  |
| O=c1[nH]c(N2CCN(c3ccccc3)CC2)nc2c1CCCC2 | 0.926 | 0.116 µM [falling, full curve, poor fit] |  |
| O=c1n(Cc2ccc(F)cc2)nc2n1-c1ccccc1SC2 | 19.2 | 0.82 µM [rising, partial curve, poor fit] |  |
| CCOc1ccc2[nH]c3c(NCCO)ncnc3c2c1 |  | 0.13 µM [falling, full curve, poor fit] |  |
| c1ccc(CCNCCCOc2cccc3ccccc23)cc1 | -4.11 | 29.1 µM [rising, single point] |  |
| Cc1cccc(NC(=O)c2c(C)cc(=O)oc2C)n1 |  | 7.31 µM [falling, partial curve] |  |
| CC(=O)C1=C(O)C(=O)N(c2ccc(O)cc2)C1c1cccc(F)c1 (stereo not given) | 57 |  | 9.2 µM [rising, partial curve] |
| CCOc1cc(C2C3=C(CCCC3=O)N(CCC(=O)O)C3=C2C(=O)CCC3)ccc1OS(=O)(=O)c1ccc(C)cc1 | -10.7 | 0.82 µM [rising, full curve, poor fit] |  |
| c1cc(-c2nn[nH]n2)ccc1CN1CCCCC1 |  | 16.4 µM [falling, partial curve] | 6.51 µM [falling, single point] |
| CC(C)(C)N(Cc1ccccc1)C(=O)COC(=O)CSc1ccc([N+](=O)[O-])cc1 | -0.961 |  |  |
| Cc1ccccc1NS(=O)(=O)c1ccc(C(=O)N2CCC2)cc1 | -39.3 | 6.51 µM [falling, single point] | 3.26 µM [falling, full curve] |
| O=C(CSc1nccc(=O)[nH]1)c1ccccc1Br |  | 0.411 µM [rising, partial curve, poor fit] | 1.46 µM [rising, partial curve] |

| SMILES | cell number change [%] | AC50 [1] | AC50 [2] |
| --- | --- | --- | --- |
| CCc1cc(-c2n[nH]c(=S)n2CC)cs1 | 0.988 | 6.51 µM [rising, full curve] |  |
| OC(CNCCc1ccc(Cl)cc1Cl)COc1ccccc1 (stereo not given) | -34.5 |  |  |
| C=C(C)c1cccc(C(C)(C)NC(=O)N2CCN(CC(N)=O)CC2)c1 | -13.9 | 29.1 µM [falling, partial curve, poor fit] |  |
| COc1cccc(-c2ncc3ccccc3c2COC(=O)N(C)C)c1 | -11.8 | 0.092 µM [falling, single point] |  |
| Cc1ccc(C2C3=C(NCCN=C3c3ccccc3)C(=O)N2c2ccccc2)cc1 (stereo not given) | -70.4 | 1.64 µM [falling, full curve] | 23.1 µM [falling, partial curve, poor fit] |
| Cc1ccc(-c2cc(NC(=O)CSc3n[nH]c(N)n3)n(-c3ccccc3)n2)cc1 |  | 0.259 µM [rising, full curve] | 0.146 µM [rising, full curve, poor fit] |
| CCOCC(=O)Nc1nnc(SCCOC)s1 | -8.99 | 1.16 µM [falling, full curve] |  |
| O=C(Nc1ccc(F)cc1F)N1CCCN(c2ccc(C(F)(F)F)cn2)CC1 | 23.6 | 14.6 µM [rising, partial curve, poor fit] |  |
| CC(=O)c1ccc(N2CCN(C(=O)c3n[nH]c4ccccc34)CC2)cc1 |  |  | 2.91 µM [rising, partial curve] |
| CN1CCN(C(=O)c2ccc(N3CCCC3=O)cc2)CC1 | -40.5 |  | 5.17 µM [falling, full curve] |
| COC(=O)c1cc(=O)nc2sc(-c3ccccc3)nn12 | -3.51 |  |  |
| CCOc1ccc(CCNC(=O)c2cccc(N3CCCC3=O)c2)cc1OCC |  |  | 2.31 µM [falling, partial curve] |
| N#C/C(=C(/O)COC(=O)CCCNC(=O)c1ccc(Cl)cc1)c1nc2ccccc2[nH]1 | 51.2 |  | 6.51 µM [rising, partial curve, poor fit] |
| O=C(/C=C/c1ccccc1)NC(NC(=S)Nc1ccc(Cl)cc1Cl)C(Cl)(Cl)Cl (stereo not given) | -27.9 |  |  |
| CC1CCCCC1NC(=O)CN1C(=O)NC(C)(c2cc(F)ccc2F)C1=O (stereo not given) | 11.1 |  |  |
| Cc1ccc(SC(C)C(=O)Nc2cccnc2)cc1 (stereo not given) | -24.1 | 0.326 µM [falling, full curve, poor fit] |  |
| CC/C(=N/NS(=O)(=O)c1ccc(Cl)cc1)c1ccc(O)cc1 | -7.91 | 0.82 µM [falling, full curve, poor fit] |  |
| COc1ccc(NC(=O)c2cccc(N3C(=O)c4ccc(C(=O)Nc5ccc(OC)c(O)c5)cc4C3=O)c2)cc1O | 33.5 |  | 2.91 µM [rising, full curve, poor fit] |
| O=C(CNS(=O)(=O)c1ccccc1)OCC(=O)c1ccc([N+](=O)[O-])cc1 | -16.2 | 7.31 µM [falling, partial curve, poor fit] |  |
